{
  "source": "patent US20220125818A1",
  "about": "“COMPOSITIONS AND METHODS FOR TREATMENT OF A CORONAVIRUS DISEASE (COVID-19) INFECTION” (priority 2020, published 2022)",
  "origin": "cited, not measured here",
  "test_system": "dengue and hemorrhagic fever",
  "conditions": "infected patients with dengue and hemorrhagic fever",
  "note": "At least one structure is not confirmed: it was looked up by name or label, or the drawing left a doubt.",
  "data": [
    {"compound": "C[C@H]1c2cccc(O)c2C(=O)C2=C(O)[C@]3(O)C(=O)C(C(N)=O)=C(O)[C@@H](N(C)C)[C@@H]3[C@@H](O)[C@@H]21", "note": "[doxycycline, Doxycycline]", "values": [
      {"measurement": "reduction of the mortality rate", "value": "about 46%"}
    ]}
  ]
}
